From publication PMC8636563
These are yes or no findings as the source states them, for the method shown. Binding can be weak; no strength is given. Where a sequence is shown, tags or fusion partners need not be part of it.

Target: T1, Nse2_(short) (budding yeast (Saccharomyces cerevisiae)) (UniProt P38632)
T1 sequence: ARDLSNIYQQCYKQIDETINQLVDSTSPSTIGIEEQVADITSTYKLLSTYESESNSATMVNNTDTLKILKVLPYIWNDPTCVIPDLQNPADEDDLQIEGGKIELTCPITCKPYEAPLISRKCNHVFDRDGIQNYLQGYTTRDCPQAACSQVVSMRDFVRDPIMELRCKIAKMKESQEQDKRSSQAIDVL
Assay: crystal structure; shortNse2/Arm-Smc5, ΔN18 Smt3 and the A129K/K153R Ubc9-FL Smt3 thioester mimetic mixed equimolar (~7 µM each) in 20 mM Tris-HCl pH 8.0, 100 mM NaCl, 1 mM BME, concentrated to 9 mg/mL; hanging drop, 18 °C; 3.3 Å; both purified

binding: binds
Substance: ΔN18 Smt3 (yeast (Saccharomyces cerevisiae)) (domain or fragment)
